According to PMC7876005 (Communications Biology, 2021):
Results are given in words; binding and its absence hold for the method and conditions named. Some entries that bind do so weakly or less than the wild type.

Target: T1, regulatory subunit of acetolactate synthase complex (Ilv6) (S. cerevisiae (endogenous in yeast lysate)) (UniProt P25605)
T1 sequence: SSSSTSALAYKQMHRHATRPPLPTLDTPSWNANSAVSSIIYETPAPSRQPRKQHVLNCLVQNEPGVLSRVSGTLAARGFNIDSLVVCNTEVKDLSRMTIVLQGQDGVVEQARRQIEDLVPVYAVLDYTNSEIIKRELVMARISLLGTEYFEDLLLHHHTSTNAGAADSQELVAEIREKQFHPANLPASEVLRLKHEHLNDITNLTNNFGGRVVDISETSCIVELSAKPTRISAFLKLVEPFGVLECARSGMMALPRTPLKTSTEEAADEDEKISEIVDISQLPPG
Assay: SEC; PROMIS: native soluble lysate of YSBN2 in logarithmic phase separated on Sepax SRT SEC-300, 50 mM AmBIC pH 7.5, 150 mM NaCl, 1.5 mM MgCl2, 4 °C; fractions analysed by LC-MS proteomics and metabolomics; co-elution (PCC ≥ 0.7) defines putative interactors

binding: binds
B1: catalytic subunit of acetolactate synthase complex (Ilv2) (enzyme, UniProt P07342 91-687)
chain: GLTGGQIFNEMMSRQNVDTVFGYPGGAILPVYDAIHNSDKFNFVLPKHEQGAGHMAEGYARASGKPGVVLVTSGPGATNVVTPMADAFADGIPMVVFTGQVPTSAIGTDAFQEADVVGISRSCTKWNVMVKSVEELPLRINEAFEIATSGRPGPVLVDLPKDVTAAILRNPIPTKTTLPSNALNQLTSRAQDEFVMQSINKAADLINLAKKPVLYVGAGILNHADGPRLLKELSDRAQIPVTTTLQGLGSFDQEDPKSLDMLGMHGCATANLAVQNADLIIAVGARFDDRVTGNISKFAPEARRAAAEGRGGIIHFEVSPKNINKVVQTQIAVEGDATTNLGKMMSKIFPVKERSEWFAQINKWKKEYPYAYMEETPGSKIKPQTVIKKLSKVANDTGRHVIVTTGVGQHQMWAAQHWTWRNPHTFITSGGLGTMGYGLPAAIGAQVAKPESLVIDIDGDASFNMTLTELSSAVQAGTPVKILILNNEEQGMVTQWQSLFYEHRYSHTHQLNPDFIKLAEAMGLKGLRVKKQEELDAKLKEFVSTKGPVLLEVEVDKKVPVLPMVAGGSGLDEFINFDPEVERQQTELRHKRTGGKH
